Assay results reported in PubChem BioAssay AID2685 (National Center for Advancing Translational Sciences (NCATS), 2010).
The other results are listed elsewhere or left out. The main result of the screen is listed elsewhere. These columns were measured beside it and carry no call. Compounds called inactive in the main read-out are mostly missing here. The note in brackets gives the kind of curve behind each potency; many fits are weak.

Assay: qHTS Assay for Lipid Storage Modulators in Drosophila S3 Cells;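 on cell number change: cells counted by Cell Tracker Red CMTPX staining in the red channel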
Settings: BODIPY lipid droplet fluorescence, 18-24 h; for cell number change: measured here: cell count max response, cells fed with added oleic acid
How it was run: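 Drosophila S3 cells got compounds at several concentrations plus oleic acid (400 uM solution). Laser-scanning cytometry with 488 nm excitation read lipid droplets at 500-530 nm and cells at 575-640 nm. Percent activity was relative to 20 uM Triacsin C.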

[1] = measured here: lipid fluorescence (Fed channel) AC50, cells fed with added oleic acid
[2] = measured here: cell number channel AC50, cells fed with added oleic acid

Compound | cell number change | AC50 [1] | AC50 [2]
COC(=O)c1ccc(C(C(=O)NC2CCCCC2)N(Cc2ccccc2)C(=O)Cc2cccs2)cc1 (centres undefined) | -8.31% | 0.58 µM [falling, full curve] | –
Cc1cc(NC(=O)C2C3C(=O)N(Cc4ccc(Cl)cc4)C(C(=O)NC(C)(C)C)C34C=CC2(C)O4)no1 (centres undefined) | -24.4% | 2.91 µM [falling, full curve, poor fit] | –
COc1cccc(N2CC(O)=C(c3ccccc3)C2=N)c1 | – | 2.31 µM [rising, partial curve] | –
Cc1nc(SCC(=O)NCCc2ccccc2)nc(C)c1C | 80.7% | – | 18.4 µM [rising, partial curve]
N=c1c(S(=O)(=O)c2ccc(Cl)cc2)cc2c(=O)n3ccccc3nc2n1CCc1ccccc1 | 5.84% | 1.03 µM [falling, partial curve] | –
CCCc1cc(=O)[nH]c(SCC(=O)c2cc(C)n(C3CC3)c2C)n1 | 18.6% | 2.91 µM [falling, partial curve] | –
O=C(O)CC1CCC(=C(Cl)Cl)C1 (centres undefined) | -40.6% | 0.517 µM [falling, full curve] | 32.6 µM [falling, single point]
COC(=O)c1ccc(CN2C(=O)c3ccccc3S2(=O)=O)cc1 | 0.663% | 8.2 µM [rising, partial curve] | –
CC1CC1C(=O)OCC(=O)Nc1ccccc1Oc1ccccc1 (centres undefined) | 145% | – | 18.4 µM [rising, single point]
CCC(=O)N1CCN=C1SCc1ccc(F)cc1 | 27.4% | 7.31 µM [rising, partial curve, poor fit] | –
COc1cccc(NC(=O)CN(C)CC(=O)Nc2ccc(C)cc2Cl)c1 | -11.6% | – | –
Nc1ccc(C(=O)n2c3ccccc3c3ccccc32)cc1 | -26.6% | 25.9 µM [falling, single point] | –
CCCCCC(=O)N/N=C/c1ccc([N+](=O)[O-])o1 | -19.5% | 32.6 µM [falling, partial curve, poor fit] | –
CCOC(=O)c1cc(OC(=O)c2ccccc2Br)n(-c2ccccc2)n1 | -5.07% | – | –
COc1ccccc1C(=O)NCC(=O)Nc1ccc2c(c1)OCO2 | -82.1% | 0.206 µM [falling, partial curve, poor fit] | 20.6 µM [falling, partial curve]
CCOC(=O)C1CCN(C(=O)c2cc3ccc(OC)cc3[nH]2)CC1 | – | 6.51 µM [rising, single point] | 6.51 µM [rising, single point]
CCCNc1nc2c(c(=O)n(C)c(=O)n2C)n1CCC(C)C | 54.2% | 29.1 µM [rising, single point] | 29.1 µM [rising, single point]
CCCCCCC(=O)Nc1nc(C)c(-c2csc(Nc3ccccc3OC)n2)s1 | – | 0.0731 µM [rising, full curve, poor fit] | –
CN1C(=O)[C@H]2[C@@H](C3CC3)N3C(=O)CN(Cc4ccc(-c5ccccc5)cc4)C(=O)[C@@]3(C)[C@H]2C1=O | 31.7% | – | 0.164 µM [rising, full curve, poor fit]
COc1ccc(C2=NN3C(=O)c4c(ccc(OC)c4OC)C3C2)cc1 (centres undefined) | 66% | 0.82 µM [rising, single point] | 2.31 µM [rising, full curve]

Filtered by structure: the entries above containing an aryl thioether with sulfur outside any ring
Compound | cell number change | AC50 [1] | AC50 [2]
Cc1nc(SCC(=O)NCCc2ccccc2)nc(C)c1C | 80.7% | – | 18.4 µM [rising, partial curve]
CCCc1cc(=O)[nH]c(SCC(=O)c2cc(C)n(C3CC3)c2C)n1 | 18.6% | 2.91 µM [falling, partial curve] | –

The results go on.

Compound | cell number change | AC50 [1] | AC50 [2]
O=C(CNc1ccc(Br)cc1)c1ccc(Br)s1 | 0.952% | – | –
O=C(NCCCCNC(=O)C(F)(F)F)C(F)(F)F | – | – | 6.51 µM [falling, single point]
CNC(=S)NCCc1ccccc1 | 6.45% | 0.00461 µM [falling, full curve, poor fit] | –
CC(=O)c1c(C)nc(-c2ccc3c(c2)OCO3)n1O | -3.11% | – | –
CS(=O)(=O)N(CC(=O)Nc1ccc(CC#N)cc1)c1ccc(C23CC4CC(CC(C4)C2)C3)cc1 | -124% | 29.1 µM [falling, single point] | –
COC(=O)c1sc2nc(N3CCCCC3)c3c(c2c1N)CCCC3 | -35.5% | 3.26 µM [rising, partial curve] | 25.9 µM [falling, single point]
CCCCC(=O)Nc1ccc(C(=O)NNC(=S)NC(=O)c2ccccc2[N+](=O)[O-])cc1 | 16% | 29.1 µM [rising, single point] | –
Cc1cccc(OCCCC(=O)Nc2nnc(C3CCCO3)s2)c1C (centres undefined) | -11.4% | – | –
Cc1ccc(F)c([C@H]2[C@H]3C=CC[C@@H](C)[C@@H]3C(=O)N2Cc2ccccc2)c1 | -58.9% | 20.6 µM [falling, single point] | 16.4 µM [falling, single point]
O=C(Oc1ccc2c(c1)O/C(=C\c1ccncc1)C2=O)c1cccs1 | -28.5% | 13 µM [falling, single point] | –
CNc1nc(C)c(C(C)=O)cc1C#N | -9.57% | – | –
COc1cc(CNc2nnnn2C)ccc1OCc1c(F)cccc1Cl | -0.814% | 0.103 µM [falling, full curve, poor fit] | –
O=C(Cc1ccc([N+](=O)[O-])cc1)Nc1cccnc1 | 11.6% | 5.17 µM [falling, single point] | 6.51 µM [falling, single point]
CC(=O)N1CCC(C(=O)Nc2ccccc2)(N(Cc2ccccc2)C(=O)c2cccnc2)CC1 | 26.1% | 29.1 µM [rising, single point] | –
COC(=O)C1=CNC=C(C(=O)OC)C1c1cccc2ccccc12 | 2.78% | 29.1 µM [falling, partial curve, poor fit] | –
C=CCN1CC(c2nc3ccccc3n2CCOc2ccccc2)CC1=O (centres undefined) | -26.5% | 0.651 µM [rising, single point] | –
CCc1ccc(S(=O)(=O)/N=C2/C=C(Sc3ncn[nH]3)C(=O)c3ccccc32)cc1 | -72.5% | 20.6 µM [falling, partial curve] | 20.6 µM [falling, partial curve]
CCN(CC)CCNC(=O)c1ccc(NC(=O)COc2ccc3c(c2)CCC3)cc1 | -16.9% | 0.00461 µM [rising, full curve, poor fit] | –
O=C(CCCNS(=O)(=O)c1cccc2nsnc12)NCc1ccc(Cl)cc1 | -17.1% | 13 µM [falling, partial curve] | –
Cc1ccc(NC(=O)COC(=O)CN2CCCCCC2=O)c(C)c1 | -8.97% | 0.651 µM [rising, full curve] | 0.82 µM [rising, full curve]

Compound | cell number change | AC50 [1] | AC50 [2]
CCCc1cc(=O)[nH]c(Nc2ccc(OC)c(Cl)c2)n1 | -45.8% | – | 32.6 µM [falling, partial curve]
Cc1ccc(S(=O)(=O)N2CCOCC2)cc1C(=O)OCC(=O)N(Cc1ccccc1)C(C)C | -9.11% | 32.6 µM [falling, single point] | –
COc1ccc(N2CC(NC(=O)NCC(C)C)CC2=O)cc1 (centres undefined) | 1.04% | – | 0.206 µM [rising, full curve, poor fit]
CCOc1ccccc1N(CC(=O)Nc1ccc2c(c1)OCO2)S(C)(=O)=O | 32.3% | 0.164 µM [rising, full curve, poor fit] | 2.91 µM [rising, partial curve, poor fit]
O=C(C[n+]1ccccc1)N/N=C/c1ccc(Br)cc1 | 12.1% | – | –
COc1nc(N)c(S(=O)(=O)c2ccccc2C)cc1C#N | – | 3.26 µM [rising, full curve] | –
CCc1nn(C(C)C(=O)NCc2cccc(OC)c2)c(=O)c2cc3occc3n12 (centres undefined) | -79.4% | – | 29.1 µM [falling, single point]
COc1ccc(-n2c(-c3ccco3)n[nH]c2=S)cc1 | 18.3% | 20.6 µM [rising, single point] | –
COc1ccc(/C=C/C(=O)NCCc2ccc(S(N)(=O)=O)cc2)cc1 | 92.1% | 0.103 µM [rising, full curve, poor fit] | 20.6 µM [rising, partial curve]
COc1ccc(C(=O)NC(=S)NNC(=O)c2ccncc2)cc1Br | -12.1% | 0.731 µM [rising, partial curve, poor fit] | –
O=C(CN1CCN(Cc2ccc3c(c2)OCO3)CC1)N1CCc2[nH]c3ccc(F)cc3c2C1 | – | 3.66 µM [rising, single point] | –
Cc1ccccc1NC(=O)CSCc1nc(N)nc(Nc2ccccc2C)n1 | 20.6% | 25.9 µM [rising, single point] | –
NS(=O)(=O)c1ccc(CCNC(=O)CSc2nc3ccsc3c(=O)n2CC2CCC(C(=O)O)CC2)cc1 (centres undefined) | -46.9% | 0.0058 µM [falling, full curve, poor fit] | 5.17 µM [falling, partial curve]
CC(C)C(NC(=O)c1c(F)cccc1F)C(=O)OCN1C(=O)c2ccccc2C1=O (centres undefined) | 2.51% | 29.1 µM [rising, single point] | –
O=C1C(Cc2ccccc2)Nc2ncnc(N3CCN(c4ccccc4)CC3)c2N1Cc1ccccc1 (centres undefined) | 29.5% | 20.6 µM [rising, partial curve] | –
Cc1ccccc1Nc1c(-c2cccnc2)nc2cccc(C)n12 | – | 20.6 µM [rising, single point] | –
Cc1cc(Br)ccc1NC(=O)CN(C)C(=O)CNC(=O)Cc1ccccc1 | 12.9% | – | 6.51 µM [rising, single point]
COc1ccc(/C=C/C(=O)OCC(=O)NCCC2=CCCCC2)cc1S(=O)(=O)N1CCOCC1 | – | – | 0.103 µM [falling, full curve, poor fit]
